Assay [1] has as its target T1, PTPMT1 (as used in the coimmunoprecipitation with NERCLIN) (UniProt Q8WUK0).
T1 sequence: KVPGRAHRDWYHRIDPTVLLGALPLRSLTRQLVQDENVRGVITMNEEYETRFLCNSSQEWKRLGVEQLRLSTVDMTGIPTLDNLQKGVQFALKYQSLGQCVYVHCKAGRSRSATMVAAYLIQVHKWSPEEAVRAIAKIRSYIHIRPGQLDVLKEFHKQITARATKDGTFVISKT
Kind of assay: co-IP; coimmunoprecipitation of NERCLIN and PTPMT1, in both directions (SI Appendix, Fig. S4A).

For assay [2], the target named is NERCLIN (as used in the coimmunoprecipitation with PTPMT1) (human). The description is as above.

These are yes or no findings as the source states them, for the method shown. In cells and extracts the contact can be indirect.

Regarding “NERCLIN (as used in the coimmunoprecipitation with PTPMT1) (human)”, the binding result in assay [1] was “no binding”.

B1: PTPMT1 (as used in the coimmunoprecipitation with NERCLIN) (protein, UniProt Q8WUK0 28-201)
chain: T1 sequence
In the case of B1, the binding result in assay [2] is listed as “no binding”.
